# These are yes or no findings as the source states them, for the method shown. Binding calls can cover weak binding; strength is not graded here.
# Amino acid sequences for entries named in this document (tags omitted). A change or cut given only in a name is not applied to a line headed by its entry. Residues count along the entry.
# UniProt O95466: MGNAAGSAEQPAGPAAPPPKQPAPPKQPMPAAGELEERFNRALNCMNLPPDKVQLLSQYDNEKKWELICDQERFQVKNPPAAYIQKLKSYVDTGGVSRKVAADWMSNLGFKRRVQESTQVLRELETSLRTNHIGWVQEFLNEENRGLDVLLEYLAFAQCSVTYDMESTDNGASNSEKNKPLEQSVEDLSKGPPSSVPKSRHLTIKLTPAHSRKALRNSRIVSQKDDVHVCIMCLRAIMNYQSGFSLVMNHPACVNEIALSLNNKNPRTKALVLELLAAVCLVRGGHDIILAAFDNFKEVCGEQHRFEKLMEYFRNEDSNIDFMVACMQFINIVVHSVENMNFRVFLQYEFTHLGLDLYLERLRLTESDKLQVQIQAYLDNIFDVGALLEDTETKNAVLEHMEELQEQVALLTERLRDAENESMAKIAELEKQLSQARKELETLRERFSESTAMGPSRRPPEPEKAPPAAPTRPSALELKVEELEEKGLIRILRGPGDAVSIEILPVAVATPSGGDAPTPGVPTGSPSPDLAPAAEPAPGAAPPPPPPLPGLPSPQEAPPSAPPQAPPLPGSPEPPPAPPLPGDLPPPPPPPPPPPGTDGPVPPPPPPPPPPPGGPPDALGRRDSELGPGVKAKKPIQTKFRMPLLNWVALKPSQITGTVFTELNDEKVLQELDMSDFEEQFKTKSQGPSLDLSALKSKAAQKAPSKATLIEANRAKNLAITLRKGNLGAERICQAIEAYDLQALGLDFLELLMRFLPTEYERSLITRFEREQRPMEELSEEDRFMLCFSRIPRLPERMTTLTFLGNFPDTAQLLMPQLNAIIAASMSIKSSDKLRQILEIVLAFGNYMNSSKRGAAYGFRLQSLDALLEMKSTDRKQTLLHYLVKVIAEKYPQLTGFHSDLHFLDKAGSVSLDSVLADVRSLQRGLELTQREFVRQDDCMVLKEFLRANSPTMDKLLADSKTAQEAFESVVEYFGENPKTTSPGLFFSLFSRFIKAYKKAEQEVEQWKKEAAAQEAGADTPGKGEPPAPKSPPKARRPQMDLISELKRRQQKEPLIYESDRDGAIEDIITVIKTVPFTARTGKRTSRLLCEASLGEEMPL
# UniProt P60953, residues 1-179: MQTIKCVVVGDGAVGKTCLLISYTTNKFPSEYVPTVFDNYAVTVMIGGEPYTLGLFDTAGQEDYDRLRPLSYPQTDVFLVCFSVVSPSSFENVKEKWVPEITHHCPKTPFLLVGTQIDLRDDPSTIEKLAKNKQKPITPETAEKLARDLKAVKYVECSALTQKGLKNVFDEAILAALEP
# Biological target: FMNL1NCC (FMNL1 1–458, GBD-FH3-CC) (human) (UniProt O95466)
# Assay: SEC; analytical gel filtration, Superdex S200 (10/300 GL), typically 100 μg of each protein, 20 mM Tris/HCl pH 8.0, 150 mM NaCl, 1 mM DTE (2.5 mM MgCl2 with Rho GTPases), 0.5 ml/min, 293 K; both purified
substance,measurement,value
Cdc42 (1–179) (from UniProt P60953 1-179) (domain or fragment),binding,binds

# Reference: paper PMC4432619
